This assay concerns HEK293A TEAD-LUC reporter. The assay can be described thus: TEAD-luciferase reporter activity (YAP activation), robust Z score vs plate; higher = stronger YAP/TEAD activation. To be noted: 24 h. A general note: Reporter assays use an easily measured gene product as a stand-in for the process of interest.

Structures can show the parent of a compound that is named as a salt. Some of the results follow. Repeats in this data set agree poorly, so a single value says little.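 Human kidney-derived cells stably carry a construct in which eight TEAD-binding elements drive luciferase, measured by luminescence in a drug-repurposing library screen. A hit is any compound whose signal exceeds the plate mean by more than five robust Z scores.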

With `CC(C)(Sc1cc(C(C)(C)C)c(O)c(C(C)(C)C)c1)Sc1cc(C(C)(C)C)c(COC(=O)O)c(C(C)(C)C)c1`, the TEAD-luciferase reporter activity runs as follows: (compound concentration: 200 nM) inactive: -1.94; (compound concentration: 2 uM) inactive: 0.425; (compound concentration: 10 uM) inactive: 0.0605.
The like results for `CS(=O)(=O)c1ccc(-n2nc(C(F)(F)F)cc2-c2ccc(F)cc2)cc1` were, in that order, inactive: -1.8, inactive: -0.773 and inactive: 1.71.
On to `CC(C)NCC(O)COc1ccccc1C1CC1` (stereo not drawn) [Procinolol], for which the TEAD-luciferase reporter activity reads like this: (compound concentration: 200 nM) inactive: 0.58; (compound concentration: 2 uM) inactive: 0.132; (compound concentration: 10 uM) inactive: 0.536.
For `O=C(Nc1cccc2c(=O)cc(-c3nnn[nH]3)oc12)c1ccc2c(c1)CC(COCc1ccc(F)cc1)O2` (stereo not drawn), the TEAD-luciferase reporter activity runs as follows: (compound concentration: 200 nM) inactive: 1.97; (compound concentration: 2 uM) inactive: -0.807; (compound concentration: 10 uM) inactive: -0.338.
With `CC(C)NC(=O)N1CNC(=O)C12CCN(C(=O)C1CCN(C)CC1)CC2`, the TEAD-luciferase reporter activity by setting is: (compound concentration: 200 nM) inactive: -1.79; (compound concentration: 10 uM) inactive: 0.302.
As to `O=c1c2ccccc2c(Cc2ccc(Cl)cc2)nn1C[C@H]1CCCN1CCCCc1ccc(OCCCN2CCCCCC2)cc1`, the TEAD-luciferase reporter activity is, setting by setting: (compound concentration: 200 nM) inactive: -1.33; (compound concentration: 2 uM) inactive: 0.0765; (compound concentration: 10 uM) inactive: 1.23.
The like results for `COc1ccc(Cl)cc1C1(F)C(=O)N(COP(=O)(O)O)c2cc(C(F)(F)F)ccc21` (stereo not drawn) were, in that order, inactive: 0.357, inactive: -1.07 and inactive: 1.29.
For the molecule `COC(=O)NC1CCCN(c2nc3ncccc3o2)C1` (stereo not drawn), the TEAD-luciferase reporter activity (compound concentration: 200 nM) is inactive: -0.558 and the TEAD-luciferase reporter activity (compound concentration: 10 uM) was inactive: -0.0692.
As for `COc1cc(C(C)=O)ccc1OCCCN1CCC(c2noc3cc(F)ccc23)CC1` [iloperidone injection], the TEAD-luciferase reporter activity (compound concentration: 200 nM) was inactive: -0.781, the TEAD-luciferase reporter activity (compound concentration: 2 uM) is inactive: -0.523 and the TEAD-luciferase reporter activity (compound concentration: 10 uM) is inactive: -0.557.
The corresponding values for `O=C(c1ccc2c(c1)OCO2)n1c(=O)c(F)cn([C@H]2C[C@H](O)[C@@H](CO)O2)c1=O` are inactive: -1.72, inactive: -1.28 and inactive: -1.16.
The corresponding values for `CC1=NN(CCOc2ccc3ccccc3c2)C(=O)C1` are inactive: -0.362, inactive: -0.713 and inactive: -0.554.
The corresponding values for `CC(C)(O)c1ccccc1CC[C@H](SCC1(C(=O)O)CC1)c1cccc(/C=C/c2ccc3ccc(Cl)cc3n2)c1` are inactive: -0.547, inactive: 1.91 and active: 7.4.
As to `N[C@@H](C=O)[C@@H](O)[C@@H](O)[C@H](O)CO` [glucosamine sulfate], the TEAD-luciferase reporter activity runs as follows: (compound concentration: 200 nM) inactive: -1.26; (compound concentration: 2 uM) inactive: 1.1; (compound concentration: 10 uM) inactive: -0.151.
As for `COc1ccc(OC)c(Cc2nc3ccc(OC(C)C)cc3c(=O)n2CCN(C)C)c1`, the TEAD-luciferase reporter activity is, setting by setting: (compound concentration: 200 nM) inactive: 0.389; (compound concentration: 2 uM) inactive: -0.69; (compound concentration: 10 uM) inactive: -0.642.
In the case of `CC(=O)Oc1cccc(O)c1` [Resorcinol (monoacetate)], the TEAD-luciferase reporter activity (compound concentration: 2 uM) is inactive: -0.0406.
As to `CC(=O)Oc1cccc(O)c1` [3-Hydroxyphenyl acetate], under “compound concentration: 10 uM”, the TEAD-luciferase reporter activity was inactive: -0.585.
As to `Nc1ccn([C@@H]2C=C(CO)[C@@H](O)[C@H]2O)c(=O)n1`, the TEAD-luciferase reporter activity (compound concentration: 200 nM) was inactive: 0.123 and the TEAD-luciferase reporter activity (compound concentration: 10 uM) was inactive: 0.502.
On to `COC[C@H](O)COc1ccc(OCc2cccc(Cl)c2)cc1`, for which the TEAD-luciferase reporter activity (compound concentration: 200 nM) is inactive: -0.201, the TEAD-luciferase reporter activity (compound concentration: 2 uM) was inactive: 1.91 and the TEAD-luciferase reporter activity (compound concentration: 10 uM) is inactive: 0.357.
The like results for `COc1cc2c(Nc3ccc(Br)cc3F)ncnc2cc1OCCn1ccnn1` were, in that order, inactive: -1.33, inactive: -2.03 and inactive: -2.12.
`Cc1cc(N2CCOCC2)nc(C)c1NC(=O)OCc1ccccc1`: the TEAD-luciferase reporter activity (compound concentration: 200 nM) is inactive: -1.87, the TEAD-luciferase reporter activity (compound concentration: 2 uM) was inactive: -0.152 and the TEAD-luciferase reporter activity (compound concentration: 10 uM) was inactive: 0.0153.
As for `COc1ccc(CC2SC(=O)NC2=O)cc1C(=O)NCc1ccc(C(F)(F)F)cc1` (stereo not drawn), the TEAD-luciferase reporter activity reads like this: (compound concentration: 200 nM) inactive: 4.69; (compound concentration: 10 uM) inactive: 0.465.
In the case of `O=c1[nH]cnc2c1ncn2C1OC(CO)C(O)C1O` (stereo not drawn), the TEAD-luciferase reporter activity is inactive: -0.863 (compound concentration: 200 nM), inactive: 0.98 (compound concentration: 2 uM) and inactive: 0.11 (compound concentration: 10 uM).
Consider `Nc1nc2c(ncn2CCC(CO)CO)c(=O)[nH]1` [penciclovir], for which the TEAD-luciferase reporter activity (compound concentration: 2 uM) is inactive: -0.958.
For `Nc1nc2c(ncn2CCC(CO)CO)c(=O)[nH]1`, the TEAD-luciferase reporter activity by setting is: (compound concentration: 200 nM) inactive: 2.42; (compound concentration: 10 uM) inactive: 0.592.
On to `CC#CCn1c(N2CCNCC2)nc2cnn(C)c(=O)c21`, for which the TEAD-luciferase reporter activity is inactive: 0.884 (compound concentration: 200 nM), inactive: 3.29 (compound concentration: 2 uM) and inactive: 2.11 (compound concentration: 10 uM).
In the case of `NC(=O)/C(=C/n1cnc(-c2cc(C(F)(F)F)cc(C(F)(F)F)c2)n1)c1cncnc1` [Eltanexor], the TEAD-luciferase reporter activity reads like this: (compound concentration: 200 nM) inactive: -0.26; (compound concentration: 2 uM) inactive: -1.73; (compound concentration: 10 uM) inactive: -0.925.
On to `COc1ccc(Cl)cc1/N=N/c1ncc[nH]1`, for which the TEAD-luciferase reporter activity (compound concentration: 200 nM) is inactive: 0.407, the TEAD-luciferase reporter activity (compound concentration: 2 uM) is inactive: -0.215 and the TEAD-luciferase reporter activity (compound concentration: 10 uM) is inactive: 0.276.
With `Cn1c(=O)[nH]c2ccc(S(=O)(=O)Nc3ccc(C(=O)N4CCCC4)cc3)cc2c1=O`, the TEAD-luciferase reporter activity is inactive: -0.672 (compound concentration: 200 nM), inactive: -0.0552 (compound concentration: 2 uM) and inactive: 0.338 (compound concentration: 10 uM).
On to `CC1(C)CC(=O)c2c(O)cc(O)cc2O1`, for which the TEAD-luciferase reporter activity reads like this: (compound concentration: 200 nM) inactive: -0.741; (compound concentration: 2 uM) inactive: 0.0333; (compound concentration: 10 uM) inactive: -1.39.
The corresponding values for `COc1ccc(C(=O)/C(Cc2cccc(N(C)C)c2)=C(\C(=O)[O-])c2ccc3c(c2)OCO3)cc1` are inactive: -2.19, inactive: -1.09 and inactive: -0.494.
On to `C=C(CC(=O)c1ccc(-c2ccccc2Cl)cc1)C(=O)O`, for which the TEAD-luciferase reporter activity (compound concentration: 200 nM) is inactive: 0.422, the TEAD-luciferase reporter activity (compound concentration: 2 uM) was inactive: -0.43 and the TEAD-luciferase reporter activity (compound concentration: 10 uM) was inactive: 0.0284.
On to `CCN(CC)C(=O)c1cccnc1` [Theramune], for which the TEAD-luciferase reporter activity runs as follows: (compound concentration: 200 nM) inactive: -0.759; (compound concentration: 2 uM) inactive: 0.225; (compound concentration: 10 uM) inactive: -0.104.
`CC1(C)NC(=O)N(c2ccc([N+](=O)[O-])c(C(F)(F)F)c2)C1=O` [nilutamide]: the TEAD-luciferase reporter activity (compound concentration: 200 nM) is inactive: -0.424, the TEAD-luciferase reporter activity (compound concentration: 2 uM) is inactive: 1.18 and the TEAD-luciferase reporter activity (compound concentration: 10 uM) is inactive: 1.95.
As to `Nc1nc(=O)c2c([nH]1)NCC(CNc1ccc(C(=O)N[C@@H](CCC(=O)O)C(=O)O)cc1)N2C=O` (stereo partly drawn) [Leucovorin Calcium], the TEAD-luciferase reporter activity (compound concentration: 200 nM) was inactive: -0.245 and the TEAD-luciferase reporter activity (compound concentration: 10 uM) was inactive: 1.7.
In the case of `NC1=NC2(CCc3cccc(Cl)c3C2)CO1` (stereo not drawn), the TEAD-luciferase reporter activity (compound concentration: 200 nM) was inactive: -0.469, the TEAD-luciferase reporter activity (compound concentration: 2 uM) was inactive: -0.0624 and the TEAD-luciferase reporter activity (compound concentration: 10 uM) is inactive: 1.6.
For `O=C1NCc2ccccc2CC12CCCN2Cc1ccccc1Br` (stereo not drawn), the TEAD-luciferase reporter activity was inactive: -2.55 (compound concentration: 200 nM) and active: 12.2 (compound concentration: 10 uM).
The like results for `CCc1ccc(CN2CCCC23Cc2ccccc2CNC3=O)cc1` (stereo not drawn) were, in that order, inactive: 1.66 and inactive: 0.526.
As to `C/C(=C\c1ccc(OCCN2CCOCC2)cc1)c1ccc2c(c1)C(C)(C)CCC2(C)C` [Mofarotene], the TEAD-luciferase reporter activity runs as follows: (compound concentration: 200 nM) inactive: 0.828; (compound concentration: 2 uM) inactive: -1.04; (compound concentration: 10 uM) inactive: -1.1.
Take `CC(C)CCC[C@@H](C)[C@H]1CC[C@H]2[C@@H]3CCC4(OCCO4)[C@](C)(CCCO)[C@H]3CC[C@]12C`: the TEAD-luciferase reporter activity is inactive: -1.06 (compound concentration: 200 nM), inactive: -0.241 (compound concentration: 2 uM) and inactive: -1.02 (compound concentration: 10 uM).
